Consider 20 targets from the supplement of paper PMC11732987, “Enantioselective OTUD7B fragment discovery through chemoproteomics screening and high-throughput optimisation” (Communications Chemistry, 2025).

Sequences of proteins named here, by UniProt entry; tags and fusion partners are left off. A change or cut given only in a name is not applied to a line headed by its entry.
UniProt Q96HP0: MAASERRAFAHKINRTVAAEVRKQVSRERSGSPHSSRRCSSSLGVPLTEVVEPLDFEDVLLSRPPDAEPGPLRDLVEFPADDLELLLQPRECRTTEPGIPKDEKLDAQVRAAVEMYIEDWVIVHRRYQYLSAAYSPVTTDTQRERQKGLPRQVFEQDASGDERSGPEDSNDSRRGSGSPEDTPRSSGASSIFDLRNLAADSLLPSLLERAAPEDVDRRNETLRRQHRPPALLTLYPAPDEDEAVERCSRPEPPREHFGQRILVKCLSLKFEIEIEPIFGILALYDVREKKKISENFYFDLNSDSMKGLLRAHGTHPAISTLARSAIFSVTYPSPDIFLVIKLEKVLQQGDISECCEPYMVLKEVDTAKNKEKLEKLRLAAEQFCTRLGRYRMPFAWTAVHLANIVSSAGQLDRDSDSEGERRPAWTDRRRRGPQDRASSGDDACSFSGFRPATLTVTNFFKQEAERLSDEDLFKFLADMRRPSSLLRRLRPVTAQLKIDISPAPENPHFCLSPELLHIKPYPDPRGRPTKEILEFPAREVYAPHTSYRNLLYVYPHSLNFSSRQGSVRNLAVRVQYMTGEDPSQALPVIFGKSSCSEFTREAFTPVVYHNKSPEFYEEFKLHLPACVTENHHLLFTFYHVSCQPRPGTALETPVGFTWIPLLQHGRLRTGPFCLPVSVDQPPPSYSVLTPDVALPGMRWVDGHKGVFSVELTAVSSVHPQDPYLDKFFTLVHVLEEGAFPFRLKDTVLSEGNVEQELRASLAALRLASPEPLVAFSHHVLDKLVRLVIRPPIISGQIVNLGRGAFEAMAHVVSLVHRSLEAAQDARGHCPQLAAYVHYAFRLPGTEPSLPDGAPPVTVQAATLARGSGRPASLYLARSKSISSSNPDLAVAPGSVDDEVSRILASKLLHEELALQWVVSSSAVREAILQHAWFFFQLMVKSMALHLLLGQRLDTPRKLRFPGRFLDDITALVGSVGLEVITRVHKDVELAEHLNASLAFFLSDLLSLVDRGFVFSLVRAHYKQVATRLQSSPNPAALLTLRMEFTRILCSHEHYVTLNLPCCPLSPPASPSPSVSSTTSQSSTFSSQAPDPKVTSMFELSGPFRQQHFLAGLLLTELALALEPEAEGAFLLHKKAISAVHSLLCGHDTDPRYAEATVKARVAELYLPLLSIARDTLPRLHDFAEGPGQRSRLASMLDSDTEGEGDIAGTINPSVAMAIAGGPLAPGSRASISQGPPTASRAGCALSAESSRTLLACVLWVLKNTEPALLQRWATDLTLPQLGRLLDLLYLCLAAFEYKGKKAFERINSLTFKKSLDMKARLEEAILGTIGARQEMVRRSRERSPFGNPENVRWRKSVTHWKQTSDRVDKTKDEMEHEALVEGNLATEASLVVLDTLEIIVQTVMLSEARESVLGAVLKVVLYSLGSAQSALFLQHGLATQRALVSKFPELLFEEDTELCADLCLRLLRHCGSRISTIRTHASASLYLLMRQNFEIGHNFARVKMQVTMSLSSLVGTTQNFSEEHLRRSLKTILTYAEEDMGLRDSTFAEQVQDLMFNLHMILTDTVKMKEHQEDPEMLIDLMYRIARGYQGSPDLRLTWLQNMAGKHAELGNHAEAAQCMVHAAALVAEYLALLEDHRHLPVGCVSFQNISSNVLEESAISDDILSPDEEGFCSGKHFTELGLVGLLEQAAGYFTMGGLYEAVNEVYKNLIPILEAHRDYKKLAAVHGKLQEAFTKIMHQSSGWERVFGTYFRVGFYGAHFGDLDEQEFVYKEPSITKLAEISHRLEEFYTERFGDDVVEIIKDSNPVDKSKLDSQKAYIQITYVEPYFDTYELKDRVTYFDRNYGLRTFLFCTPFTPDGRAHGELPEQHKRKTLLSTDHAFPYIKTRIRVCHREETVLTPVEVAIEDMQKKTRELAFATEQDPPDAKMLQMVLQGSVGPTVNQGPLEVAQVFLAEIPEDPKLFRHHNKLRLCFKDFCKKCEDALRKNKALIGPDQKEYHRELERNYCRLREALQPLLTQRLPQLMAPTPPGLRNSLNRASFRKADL
UniProt Q8TF46: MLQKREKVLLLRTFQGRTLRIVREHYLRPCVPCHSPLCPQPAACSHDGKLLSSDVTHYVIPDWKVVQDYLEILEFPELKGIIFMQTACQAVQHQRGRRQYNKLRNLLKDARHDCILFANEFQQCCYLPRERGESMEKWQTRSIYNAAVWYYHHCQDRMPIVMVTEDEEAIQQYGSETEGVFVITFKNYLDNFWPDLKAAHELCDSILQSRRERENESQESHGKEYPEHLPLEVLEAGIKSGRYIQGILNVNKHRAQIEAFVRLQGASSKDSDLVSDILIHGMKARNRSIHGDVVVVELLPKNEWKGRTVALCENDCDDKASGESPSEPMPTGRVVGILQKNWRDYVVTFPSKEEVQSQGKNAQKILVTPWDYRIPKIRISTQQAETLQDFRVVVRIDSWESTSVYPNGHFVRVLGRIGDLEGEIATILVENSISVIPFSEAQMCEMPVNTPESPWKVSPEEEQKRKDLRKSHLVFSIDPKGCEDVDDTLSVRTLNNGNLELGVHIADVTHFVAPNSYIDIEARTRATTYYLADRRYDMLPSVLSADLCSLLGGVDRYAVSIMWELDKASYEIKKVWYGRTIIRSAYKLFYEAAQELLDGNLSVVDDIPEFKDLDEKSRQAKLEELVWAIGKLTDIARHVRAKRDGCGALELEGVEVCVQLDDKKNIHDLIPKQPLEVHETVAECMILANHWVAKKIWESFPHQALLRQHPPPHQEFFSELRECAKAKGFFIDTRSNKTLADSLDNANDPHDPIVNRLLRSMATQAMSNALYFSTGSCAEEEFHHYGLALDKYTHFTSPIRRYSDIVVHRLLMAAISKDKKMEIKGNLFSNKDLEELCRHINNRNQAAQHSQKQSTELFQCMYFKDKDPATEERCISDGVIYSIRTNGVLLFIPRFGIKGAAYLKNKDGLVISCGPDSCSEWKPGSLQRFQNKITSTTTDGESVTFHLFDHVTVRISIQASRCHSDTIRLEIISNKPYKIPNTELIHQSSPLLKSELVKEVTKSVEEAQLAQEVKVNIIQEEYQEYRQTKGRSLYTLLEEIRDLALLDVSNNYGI
UniProt Q6XZF7: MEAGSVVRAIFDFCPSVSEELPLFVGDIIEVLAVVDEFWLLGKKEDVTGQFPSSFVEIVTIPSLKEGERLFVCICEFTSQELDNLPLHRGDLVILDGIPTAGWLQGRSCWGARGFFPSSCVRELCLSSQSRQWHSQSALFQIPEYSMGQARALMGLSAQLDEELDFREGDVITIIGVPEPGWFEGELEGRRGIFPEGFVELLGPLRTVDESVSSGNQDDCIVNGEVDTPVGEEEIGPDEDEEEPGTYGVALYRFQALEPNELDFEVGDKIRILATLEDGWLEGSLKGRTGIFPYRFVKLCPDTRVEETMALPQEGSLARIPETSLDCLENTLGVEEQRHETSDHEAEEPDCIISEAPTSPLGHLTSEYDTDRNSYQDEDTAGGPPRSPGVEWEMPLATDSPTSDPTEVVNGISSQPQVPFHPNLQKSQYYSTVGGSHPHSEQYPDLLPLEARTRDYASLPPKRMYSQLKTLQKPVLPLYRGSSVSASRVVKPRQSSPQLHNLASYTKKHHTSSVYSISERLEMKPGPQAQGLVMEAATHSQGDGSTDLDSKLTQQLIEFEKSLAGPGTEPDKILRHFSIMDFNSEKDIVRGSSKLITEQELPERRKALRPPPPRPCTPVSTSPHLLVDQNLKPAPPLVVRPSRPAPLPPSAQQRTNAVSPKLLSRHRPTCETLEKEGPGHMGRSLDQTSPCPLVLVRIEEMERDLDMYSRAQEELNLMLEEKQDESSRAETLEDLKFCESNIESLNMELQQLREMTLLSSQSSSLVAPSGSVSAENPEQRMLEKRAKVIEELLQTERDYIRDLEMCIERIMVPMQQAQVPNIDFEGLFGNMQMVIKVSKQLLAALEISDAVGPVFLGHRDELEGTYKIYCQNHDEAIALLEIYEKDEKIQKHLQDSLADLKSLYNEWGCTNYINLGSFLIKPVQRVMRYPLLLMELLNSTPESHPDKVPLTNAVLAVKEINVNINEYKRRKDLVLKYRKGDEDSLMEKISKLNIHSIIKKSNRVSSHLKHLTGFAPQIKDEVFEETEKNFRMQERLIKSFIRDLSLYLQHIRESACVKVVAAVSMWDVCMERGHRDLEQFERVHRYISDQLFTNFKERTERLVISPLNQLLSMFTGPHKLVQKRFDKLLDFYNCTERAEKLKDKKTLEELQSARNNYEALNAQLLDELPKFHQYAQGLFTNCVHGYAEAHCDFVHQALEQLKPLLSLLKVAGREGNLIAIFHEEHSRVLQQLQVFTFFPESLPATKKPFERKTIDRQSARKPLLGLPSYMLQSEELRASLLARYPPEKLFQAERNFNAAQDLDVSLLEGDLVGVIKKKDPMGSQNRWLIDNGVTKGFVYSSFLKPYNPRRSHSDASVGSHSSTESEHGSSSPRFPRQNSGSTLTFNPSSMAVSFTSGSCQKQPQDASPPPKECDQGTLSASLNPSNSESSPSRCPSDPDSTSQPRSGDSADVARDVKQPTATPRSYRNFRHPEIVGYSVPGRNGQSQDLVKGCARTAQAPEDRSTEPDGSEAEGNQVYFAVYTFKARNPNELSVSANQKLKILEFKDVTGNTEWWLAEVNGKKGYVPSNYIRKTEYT
UniProt Q96QD5: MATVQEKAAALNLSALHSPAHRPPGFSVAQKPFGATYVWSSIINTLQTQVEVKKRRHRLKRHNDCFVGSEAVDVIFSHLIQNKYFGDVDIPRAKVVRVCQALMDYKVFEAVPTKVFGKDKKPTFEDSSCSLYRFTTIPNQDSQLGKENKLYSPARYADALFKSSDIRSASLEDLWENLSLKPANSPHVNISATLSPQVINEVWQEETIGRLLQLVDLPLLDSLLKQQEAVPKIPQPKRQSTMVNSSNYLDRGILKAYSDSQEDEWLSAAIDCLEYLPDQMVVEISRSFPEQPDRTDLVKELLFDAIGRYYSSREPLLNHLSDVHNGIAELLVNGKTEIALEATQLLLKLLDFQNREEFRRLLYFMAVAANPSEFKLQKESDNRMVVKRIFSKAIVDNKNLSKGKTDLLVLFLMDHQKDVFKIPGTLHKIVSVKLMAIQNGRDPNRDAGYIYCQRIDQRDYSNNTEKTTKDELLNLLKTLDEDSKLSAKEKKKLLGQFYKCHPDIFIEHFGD
UniProt Q7L2E3: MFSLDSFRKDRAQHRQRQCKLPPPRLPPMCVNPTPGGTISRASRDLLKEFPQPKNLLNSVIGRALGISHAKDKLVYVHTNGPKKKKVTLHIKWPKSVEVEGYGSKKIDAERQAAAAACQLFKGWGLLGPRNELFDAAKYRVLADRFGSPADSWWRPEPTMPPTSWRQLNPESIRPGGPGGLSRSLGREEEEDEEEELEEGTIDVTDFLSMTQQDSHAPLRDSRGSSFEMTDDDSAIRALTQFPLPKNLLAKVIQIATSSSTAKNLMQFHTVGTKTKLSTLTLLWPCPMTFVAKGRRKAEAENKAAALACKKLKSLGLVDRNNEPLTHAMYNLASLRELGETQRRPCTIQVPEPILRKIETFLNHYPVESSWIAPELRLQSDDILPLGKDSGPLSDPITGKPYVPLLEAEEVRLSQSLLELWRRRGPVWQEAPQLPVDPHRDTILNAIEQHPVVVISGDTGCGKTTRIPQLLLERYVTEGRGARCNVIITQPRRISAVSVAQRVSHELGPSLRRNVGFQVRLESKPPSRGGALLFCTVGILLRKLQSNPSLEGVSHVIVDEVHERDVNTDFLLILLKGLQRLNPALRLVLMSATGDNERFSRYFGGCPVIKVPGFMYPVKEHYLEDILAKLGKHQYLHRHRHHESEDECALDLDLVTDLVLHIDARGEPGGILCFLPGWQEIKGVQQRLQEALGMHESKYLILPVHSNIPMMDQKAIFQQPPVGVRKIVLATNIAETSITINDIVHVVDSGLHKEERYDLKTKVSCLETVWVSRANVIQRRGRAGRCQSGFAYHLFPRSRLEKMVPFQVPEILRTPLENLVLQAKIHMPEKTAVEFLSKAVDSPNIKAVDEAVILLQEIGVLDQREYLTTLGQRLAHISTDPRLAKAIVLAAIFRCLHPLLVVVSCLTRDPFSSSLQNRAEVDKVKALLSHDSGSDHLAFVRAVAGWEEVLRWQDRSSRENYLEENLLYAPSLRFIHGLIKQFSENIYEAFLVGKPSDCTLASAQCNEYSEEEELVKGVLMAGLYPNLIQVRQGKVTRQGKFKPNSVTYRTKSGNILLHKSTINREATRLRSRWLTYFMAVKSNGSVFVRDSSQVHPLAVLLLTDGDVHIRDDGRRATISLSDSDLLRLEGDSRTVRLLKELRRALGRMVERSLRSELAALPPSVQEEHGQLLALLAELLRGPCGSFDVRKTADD

This is one part of the list. The data scatter; read single values as rough.

Compound in the first experiment: ClCC(=O)N[C@H]1CCCc2ccccc12
The experiment is described as follows: log2 mean competition ratio of IA-DTB cysteine labelling (DMSO/compound) (log2 ratio); higher = stronger cysteine engagement by compound. The conditions noted are these: 50 µM; treatment time: 4 h; cell line lysate: HEK293T. As to the method:
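IA-DTB competitive cysteine chemoproteomics in HEK293T RIPA lysate. Lysates were treated with compound 29 or 30 at 50 or 200 µM for 4 h, then IA-DTB (500 µM, 1 h), trypsin-digested, NeutrAvidin-enriched and analysed by diaPASEF. Competition ratio = intensity DMSO / intensity compound (n=4 treated, n=64 DMSO); binding: mean log2 CR ≥ 1 and p ≤ 0.05 plus QC filters. Target is the cysteine site.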
For the target DENND4C C1045 (UniProt Q5VZ89), the “log2 mean competition ratio” value was -0.108.

In the case of DNAJC13 C2181 (UniProt O75165), the “log2 mean competition ratio” value is -0.267.

As for DNAAF2 C762 (UniProt Q9NVR5), the “log2 mean competition ratio” value worked out at 0.151.

Turning to DENND4B C815 (UniProt O75064), the “log2 mean competition ratio” value is -0.328.

Consider DOCK6 C1243 (UniProt Q96HP0), for which the “log2 mean competition ratio” value came to 0.013.

Turning to DOCK6 C384 (UniProt Q96HP0), the “log2 mean competition ratio” value was -0.00226.

On to DLST C66 (UniProt P36957), for which the “log2 mean competition ratio” value was -0.309.

Turning to DFFA C38 (UniProt O00273), the “log2 mean competition ratio” value is -0.0046.

As to DIS3L C482 (UniProt Q8TF46), the “log2 mean competition ratio” value is -0.328.

For the target DNAJC17 C38 (UniProt Q9NVM6), the “log2 mean competition ratio” value worked out at 0.135.

Take DNA2 C718 (UniProt P51530): the “log2 mean competition ratio” value is -0.0417.

Regarding DNPH1 C117, the “log2 mean competition ratio” value is -0.833.

In the case of DNMBP C1134 (UniProt Q6XZF7), the “log2 mean competition ratio” value was 0.119.

For the target DENND4A C1561 (UniProt Q7Z401), the “log2 mean competition ratio” value worked out at 0.0642.

DNM2 C86 (UniProt P50570): the “log2 mean competition ratio” value was -0.181.

For DNMBP C1434 (UniProt Q6XZF7), the “log2 mean competition ratio” value was -0.346.

For DEPDC7 C129 (UniProt Q96QD5), the “log2 mean competition ratio” value is -0.448.

As to DHX30 C673 (UniProt Q7L2E3), the “log2 mean competition ratio” value amounted to 0.455.

Turning to DHX30 C606 (UniProt Q7L2E3), the “log2 mean competition ratio” value was 0.483.

On to DNMT1 C1485 (UniProt P26358), for which the “log2 mean competition ratio” value was 0.0595.

The experiment is the same for the next values; noted with them: 200 µM; treatment time: 4 h; cell line lysate: HEK293T.
With DENND4C C1045 (UniProt Q5VZ89), the “log2 mean competition ratio” value amounted to 0.101.

With DNAJC13 C2181 (UniProt O75165), the “log2 mean competition ratio” value came to 0.127.

With DNAAF2 C762 (UniProt Q9NVR5), the “log2 mean competition ratio” value is 0.0286.

As to DENND4B C815 (UniProt O75064), the “log2 mean competition ratio” value was -0.171.

With DOCK6 C1243 (UniProt Q96HP0), the “log2 mean competition ratio” value was -0.00958.

Turning to DOCK6 C384 (UniProt Q96HP0), the “log2 mean competition ratio” value was 0.00914.

As for DLST C66 (UniProt P36957), the “log2 mean competition ratio” value was -0.109.

DFFA C38 (UniProt O00273): the “log2 mean competition ratio” value was -0.00599.

Consider DIS3L C482 (UniProt Q8TF46), for which the “log2 mean competition ratio” value was determined as 0.204.

Take DNAJC17 C38 (UniProt Q9NVM6): the “log2 mean competition ratio” value is -0.223.

For the target DNA2 C718 (UniProt P51530), the “log2 mean competition ratio” value was 0.522.

As to DNPH1 C117, the “log2 mean competition ratio” value was 0.222.

In the case of DNMBP C1134 (UniProt Q6XZF7), the “log2 mean competition ratio” value was 0.204.

Turning to DENND4A C1561 (UniProt Q7Z401), the “log2 mean competition ratio” value came out at 0.408.

Turning to DNM2 C86 (UniProt P50570), the “log2 mean competition ratio” value is -0.0291.

With DNMBP C1434 (UniProt Q6XZF7), the “log2 mean competition ratio” value is 0.0154.

Regarding DEPDC7 C129 (UniProt Q96QD5), the “log2 mean competition ratio” value was -0.108.

With DHX30 C673 (UniProt Q7L2E3), the “log2 mean competition ratio” value is -0.162.

For the target DHX30 C606 (UniProt Q7L2E3), the “log2 mean competition ratio” value was found to be 0.226.

Turning to DNMT1 C1485 (UniProt P26358), the “log2 mean competition ratio” value is -0.00769.
